The record followed here is PubChem BioAssay AID2685 (National Center for Advancing Translational Sciences (NCATS), 2010).

The assay in a line: qHTS Assay for Lipid Storage Modulators in Drosophila S3 Cells.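 As to cell number change: cells counted by Cell Tracker Red CMTPX staining in the red channel.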 The following applies: BODIPY lipid droplet fluorescence, 18-24 h; for cell number change: measured here: cell count max response, cells fed with added oleic acid. In outline:
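Drosophila S3 cells loaded with oleic acid (400 uM, as added) and compounds at several concentrations; lipid droplets imaged by 488-nm laser-scanning cytometry, 500–530 nm intensity and object ratio to cell channel. Percent activity normalized to 20 uM Triacsin C.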
On the technique in general: Quantitative high-throughput screening tests each substance at several concentrations.

The mark [1] stands for this setting: measured here: cell number channel AC50, cells fed with added oleic acid.
[2] abbreviates: measured here: lipid fluorescence (Fed channel) AC50, cells fed with added oleic acid.

The structures appear in SMILES notation. This is one part of the list. Further columns of the screen follow, without active or inactive calls. Compounds called inactive in the main read-out are mostly missing here. Words in brackets tell the shape of the fitted curve; partial curves, single points and poor fits give uncertain potencies.

For the compound `COCCn1c(-c2ccc(OC)cc2)cnc1N`, the cell number change was found to be 33.5%. For the same compound, under setting [1], the AC50 (as a rule, the concentration giving half of the maximal activity seen) is 6.51 µM [rising, full curve, poor fit]. Further, the AC50 under setting [2] was 4.11 µM [rising, single point]. With `O=C(O)CCCCCCC1C(=O)NC(=O)N1CCC(O)C1CCCCC1` (stereo not given), the AC50 under setting [2] was 5.8 µM [rising, full curve, poor fit].

Regarding `Cc1ccc(-n2nnnc2SC(C)C(N)=O)c(C)c1` (stereo not given), the cell number change amounted to 2.14%. For the same compound, the AC50 under setting [2] was 6.51 µM [falling, single point].

As for `Cc1ccc(S(=O)(=O)NC(=O)Nc2cccc([N+](=O)[O-])c2)cc1`, the cell number change was -25.6%.

With `CCN(Cc1ccccc1)C(=O)CCS(=O)(=O)c1ccc2c(c1)CCN2C(C)=O`, the cell number change is 4.18%. As for `Nc1c(C(=O)CSc2n[nH]c(-c3ccccc3)n2)c(=O)[nH]c(=O)n1C1CC1`, the cell number change worked out at 18.5%. With `CCN(CC)CCN(C(=O)CCS(=O)(=O)c1ccccc1)c1nc2cc(C)cc(C)c2s1`, the cell number change is -17.4%. For the same compound, the AC50 under setting [1] was 5.01 µM [falling, partial curve, poor fit]. The AC50 under setting [2] was 17.8 µM [falling, partial curve]. As to `Cn1cnnc1SCC(=O)N/N=C/c1ccc(OCC(N)=O)cc1`, the cell number change was -22.7%.

With `CCOC(=O)C1(Cc2ccccc2C)CCCN(C(=O)c2ccc(COC)o2)C1` (stereo not given), the cell number change was -34%. The AC50 under setting [1] is 0.82 µM [falling, full curve, poor fit]. Take `Cc1ccc(C(=O)O)cc1NC(=S)NC(=O)c1ccc(-c2ccc(Cl)cc2)o1`: the cell number change worked out at 10.1%.

For `CCc1nc2ccccc2n1Cc1ccccc1F`, the cell number change was -30.3%. Also, the AC50 under setting [1] was 29.1 µM [falling, single point]. Consider `COc1cc(C(=O)OCC(=O)Nc2ccc(C)cc2)cc(OC)c1OC`, for which the cell number change was determined as 11.3%. Also, under setting [2], the AC50 was 0.231 µM [rising, full curve, poor fit]. With `CCCCCc1nnc(NC(=O)Cc2cccs2)s1`, the cell number change turned out to be 48.8%. For the same compound, the AC50 under setting [1] was 3.66 µM [rising, full curve]. For the same compound, under setting [2], the AC50 is 20.6 µM [rising, partial curve]. Consider `CCc1ccc(NC(=O)C2CCN(S(=O)(=O)c3ccc4c(c3)NC(=O)C(C)S4)CC2)cc1` (stereo not given), for which the cell number change came out at 9.73%. The AC50 under setting [2] was 0.206 µM [rising, full curve, poor fit]. On to `COc1ccc(C2=NOC(C(=O)Nc3cccnc3Cl)C2)cc1` (stereo not given), for which the cell number change worked out at 22.3%. Also, under setting [2], the AC50 was 3.66 µM [rising, single point]. For the compound `O=C(CN1C(=O)NC2(CCCC2)C1=O)c1ccc(Cl)s1`, the cell number change is -15%. As to `O=C(NC1CCCCC1)c1ccc(Br)o1`, the cell number change was found to be 4.28%. Further, the AC50 under setting [2] is 0.517 µM [falling, full curve, poor fit]. As for `CN(CC(=O)Nc1ccc(F)cc1)CC(=O)Nc1ccc(Cl)c(S(=O)(=O)N2CCOCC2)c1`, the cell number change turned out to be 13%. Also, the AC50 under setting [2] is 2.31 µM [rising, full curve].

In the case of `O=C(Nc1cccnc1)c1cn(-c2ccccc2)nc1-c1cccs1`, the cell number change was -0.194%. Moreover, the half-maximal activity concentration (AC50) under setting [2] was 5.8 µM [rising, full curve]. On to `O=S1(=O)C=C(N2CCOCC2)c2ccccc21`, for which the cell number change is -15.8%. The AC50 under setting [1] was 0.00461 µM [falling, full curve, poor fit]. Take `CCOC(=O)C1(c2ccccc2)NC(c2ccccc2C)C2C(=O)N(c3ccc4c(c3)OCO4)C(=O)C21` (stereo not given): the cell number change was determined as 15.7%. For the same compound, the AC50 under setting [2] is 13 µM [rising, partial curve, poor fit].

Regarding `NS(=O)(=O)c1ccc(Nc2nc(-c3ccc(O)cc3)cs2)cc1`, the cell number change was -7.34%. In the case of `COc1cc(C(=O)NC2(C(F)(F)F)NC(=O)N(CCCc3ccccc3)C2=O)cc(OC)c1OC` (stereo not given), the cell number change was found to be 17.7%. The AC50 under setting [2] was 3.66 µM [rising, partial curve, poor fit].

Regarding `Cc1c(Cl)cccc1NC(=O)CCN1C(=O)C2CC=CCC2C1=O` (stereo not given), the cell number change stood at 4.99%. Further, the AC50 under setting [1] is 0.58 µM [rising, full curve, poor fit].

`CCOc1ccc(/C=N/n2c(C3CCCCC3)n[nH]c2=S)cc1`: the cell number change turned out to be 20.8%. Moreover, the AC50 under setting [2] was 0.58 µM [rising, single point].

For the compound `OCCN1CCN(Cc2cc(Cl)c3cccnc3c2O)CC1`, the cell number change came to 54%. In addition, the AC50 under setting [1] is 25.9 µM [rising, single point]. Besides, under setting [2], the AC50 is 0.0058 µM [falling, full curve, poor fit]. With `Cc1nnc(C)n1/N=C/c1ccc(-c2ccccc2)cc1`, the cell number change came out at 155%. In addition, under setting [1], the AC50 is 29.1 µM [rising, single point]. Under setting [2], the AC50 is 29.1 µM [rising, single point]. Regarding `CCOC(=O)/C(C#N)=C/c1c(N2CCN(c3ccccc3)CC2)nc2c(C)cccn2c1=O`, the cell number change turned out to be 31.7%. Also, under setting [1], the AC50 is 29.1 µM [rising, single point]. Consider `FCCCOc1ccc(-c2nccc(-c3ccccn3)n2)cc1`, for which the cell number change came to 9.97%. Besides, the AC50 under setting [2] was 3.66 µM [rising, partial curve]. With `Cc1ccc(-c2cn(C[C@H]3CC[C@@H]([C@@H]4CC[C@H](Cn5cc(-c6ccc(C)cc6)nn5)O4)O3)nn2)cc1`, the cell number change was -11.7%. Moreover, the AC50 under setting [2] is 16.4 µM [falling, single point]. As for `Cn1c(Cn2nnc3ccccc32)nnc1SCC(=O)N1CCc2ccccc21`, the cell number change is -8.95%. The concentration at half-maximal activity (AC50) under setting [2] was 5.8 µM [falling, single point]. As to `Cc1ccc(-c2cc(C(F)F)nc(NCC3CCCO3)n2)cc1` (stereo not given), the cell number change was -24.1%. Moreover, under setting [2], the AC50 was 29.1 µM [falling, single point]. On to `CC(C)CNC(=O)/C=C/C(=O)O`, for which the cell number change came to 1.44%. Further, the AC50 under setting [2] is 0.13 µM [falling, full curve, poor fit]. Regarding `CCCCCCSc1ccc(-c2nc3ccccn3c2NCCCC)cc1`, the cell number change was -40.1%. In addition, the AC50 under setting [1] is 14.6 µM [falling, partial curve]. As to `CC1(C)CC(=O)C2=C(C1)N(c1ccccc1)C(=O)C2(O)C(F)(F)F` (stereo not given), the cell number change was -51.6%. Under setting [1], the AC50 is 20.6 µM [falling, single point]. The AC50 under setting [2] was 0.00411 µM [falling, full curve, poor fit].

For `CCOc1ccc(Oc2ccc(Cl)cc2N)cc1`, the cell number change is 8.55%. Consider `COc1ccc(NC(=O)CN(C)C(=O)c2cccc(S(=O)(=O)Nc3ccc(F)cc3)c2)cc1`, for which the cell number change is -0.55%. The AC50 under setting [2] was 0.103 µM [rising, full curve, poor fit]. Take `COc1ccc(NCc2cc(=O)[nH]c3ccccc23)cc1`: the AC50 under setting [1] was 6.51 µM [rising, partial curve, poor fit] and the AC50 under setting [2] was 5.8 µM [rising, single point]. Regarding `O=C(Nc1ccc(N2CCN(C(=O)c3ccc(Cl)cc3)CC2)cc1)c1cccnc1`, the AC50 was 6.51 µM [rising, single point] under setting [1] and 3.26 µM [rising, partial curve] under setting [2].

Regarding `COc1ccc(C(=O)COC(=O)C(CCSC)NC(=O)COc2ccccc2)c(OC)c1` (stereo not given), the cell number change is -4.55%. The AC50 under setting [2] is 16.4 µM [falling, single point]. Consider `Cc1ccc2cc(C#N)c(N3CCCN(C(=O)c4cnccn4)CC3)nc2c1`, for which the cell number change was 21.8%. Besides, the AC50 under setting [1] was 0.13 µM [rising, full curve, poor fit]. In addition, the AC50 under setting [2] was 6.51 µM [falling, partial curve].

Turning to `COC(=O)c1cccc(S(=O)(=O)N2CCCCC2)c1`, the cell number change came to 7.11%. For the compound `CCN(CC(=O)NCc1ccc(Cl)cc1)C(=O)c1ccc(C#N)cc1`, the cell number change was -9.72%. Further, the AC50 under setting [2] was 6.51 µM [falling, single point]. Take `CC(=O)Nc1ccc(S(=O)(=O)N2CCC3(CC2)OCCO3)cc1`: the cell number change is -3.78%. The AC50 under setting [2] was 29.1 µM [rising, single point]. In the case of `N#CCCn1c(SCC(=O)c2c[nH]c3ccccc23)nc2ccccc21`, the AC50 runs as follows: under setting [1], 1.16 µM [rising, full curve]; under setting [2], 0.461 µM [rising, full curve].

Regarding `COc1ccc(-c2nc3c(c(=O)c4ccccc4n3C)c(=O)n2Cc2ccccc2)cc1`, the cell number change amounted to 12.7%. For the same compound, under setting [2], the AC50 was 29.1 µM [rising, single point]. As to `CCn1cc(C(=O)NC2CCCCC2)c(=O)c2ccc(C)nc21`, the cell number change came to 53.4%. Besides, the AC50 under setting [1] was 18.4 µM [rising, single point].

For `O=C(NCc1ccccc1)c1ccc(CS(=O)(=O)c2ccccc2)o1`, the cell number change was -9.99%. Moreover, under setting [2], the AC50 was 0.0058 µM [rising, full curve, poor fit]. Turning to `C/C(CC(C)C)=N\Nc1ccc(S(N)(=O)=O)cc1[N+](=O)[O-]`, the cell number change was -42.5%. Further, the AC50 under setting [1] was 32.6 µM [falling, partial curve, poor fit]. Also, the AC50 under setting [2] was 32.6 µM [falling, partial curve, poor fit]. On to `CCOC(=O)C1CCN(c2c(NCCCN3CCN(Cc4ccccc4)CC3)c(=O)c2=O)CC1`, for which the cell number change came out at 16%. Turning to `Cc1cccn2c(=O)c(C(=O)NC3CC(C)CC(C)(C)C3)c(O)nc12` (stereo not given), the cell number change is 12.8%. Also, under setting [2], the AC50 was 29.1 µM [falling, single point]. Regarding `O=C(Cc1ccc(Br)cc1)Nc1ccc(S(=O)(=O)NCC2CCCO2)cc1` (stereo not given), the cell number change is -20.9%. In addition, the AC50 under setting [2] is 0.291 µM [falling, partial curve, poor fit]. Take `Cc1ccc(-n2nnnc2SCc2nnc(-c3ccccc3Br)o2)cc1`: the cell number change is -15.5%. Turning to `COc1ccc(C)cc1S(=O)(=O)N1c2ccccc2CC1C` (stereo not given), the AC50 is 0.326 µM [rising, partial curve, poor fit] under setting [1] and 2.06 µM [rising, partial curve, poor fit] under setting [2]. Regarding `O=C(Nc1ccon1)Nc1cc(Cl)ccc1Cl`, the cell number change amounted to 1.16%. In addition, the AC50 under setting [2] was 6.31 µM [rising, single point]. In the case of `Fc1ccccc1NC(=S)N1CCCCC1`, the cell number change was 16.9%. In the case of `O=C(COc1ccccc1Cl)N1CCN(C(=O)c2ccco2)CC1`, the cell number change was found to be 9.19%. Besides, the AC50 under setting [2] is 29.1 µM [rising, single point]. Consider `O=C(NCc1ccccc1)C(c1ccccc1)N(C(=O)c1csnn1)c1ccccc1` (stereo not given), for which the cell number change was -22.9%. Moreover, the AC50 under setting [2] was 29.1 µM [rising, single point].

With `COc1ccccc1-c1nnc(SC(C)C(=O)Nc2ccc(C(N)=O)cc2)o1` (stereo not given), under setting [2], the AC50 is 29.1 µM [rising, single point]. Consider `CCc1ccc(CN/C=C/C(=O)c2ccc(Br)cc2)cc1`, for which the cell number change is -38.5%. For the same compound, the AC50 under setting [1] was 29.1 µM [falling, single point]. In addition, the AC50 under setting [2] is 2.06 µM [falling, partial curve].
